Some of these results come from one statement about several compounds together.
Tested on: adult mites of Tetranychus cinnabarinus
Test: Determination of adult activity of Tetranychus cinnabarinus (greenhouse spray test)
Format: in vivo
Settings: concentration of the chemical solution 5 mg/L; whole-plant spray of marrow bean seedling; surviving mites examined after 72 hours

SMILES | lethal rate for Tetranychus cinnabarinus
Cc1cc(F)c(N2Cc3ccccc3C2=O)cc1SCC(F)(F)F [compound 1] | not less than 90%
Cc1cc(F)c(N2Cc3ccccc3C2=O)cc1[S+]([O-])CC(F)(F)F (centres unmarked) [compound 2] | not less than 90%

Reference: patent US11363815B2, “Trifluoroethyl thioether (sulfoxide) substituted benzene compound and use thereof” (SHENYANG UNIVERSITY OF CHEMICAL TECHNOLOGY, priority 2018, dated 2022)
